PubChem BioAssay AID1671195 | Yale University – 2021
Here is an unselected part of about 22,000 reagents tested. Of all reagents, about 1,510 (6.9%) were called active. 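Active includes knockdowns raising or lowering LDL uptake; positive z-scores mean more uptake, negative mean less.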

- Assay: 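Knockdowns that increase or decrease uptake of fluorescent LDL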 (primary screen)
- Cells: human Huh7 hepatoma cells
- Knock-down reagent: siRNA pool against human genes, 18 nM
- Time to read-out: about 2 to 2.5 days of knockdown, then 8 h LDL uptake
- Conditions: DiI-labelled LDL at 30 µg/ml for 8 h, in lipoprotein-deficient serum medium
- Measurement: 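Fluorescent LDL signal imaged in cells, scaled to the plate median, robust z-score for each replicate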
- Direction: robust z-score: higher = more LDL uptake after knockdown
- Active means: 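Active when two or more replicates show a robust z-score above 2 or below -2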

| Gene | robust z-score, replicate 1 | robust z-score, replicate 2 | robust z-score, replicate 3 | call |
| --- | --- | --- | --- | --- |
| LINC00942 (long independently transcribed non-coding RNA 942) | 2.14 | 1.2 | 1.29 | inactive |
| LOC440966 (retired record) | -1.1 | -0.54 | -0.976 | inactive |
| BTLA (B and T lymphocyte associated) | -0.592 | 0.816 | -0.336 | inactive |
| LOC440710 (retired record) | 0.585 | 0.645 | 0.274 | inactive |
| CSRP1 (cysteine and glycine rich protein 1) | -0.721 | -0.151 | -0.783 | inactive |
| PDGFB (platelet derived growth factor subunit B) | -0.613 | -1.54 | -0.157 | inactive |
| DIAPH2 (diaphanous related formin 2) | 0.586 | 1.07 | -0.975 | inactive |
| GPATCH1 (G-patch domain containing 1) | 0.35 | -0.636 | 0.198 | inactive |
| KAT5 (lysine acetyltransferase 5) | -1.58 | -1.62 | -1.95 | inactive |
| DIMT1 (DIM1 rRNA methyltransferase and ribosome maturation factor) | -0.0523 | 0.00514 | -0.353 | inactive |
| MTLN (mitoregulin) | 0.575 | -0.0756 | 0.24 | inactive |
| VTN (vitronectin) | 0.0283 | -0.957 | -0.549 | inactive |
| OR2J4P (olfactory receptor family 2 subfamily J member 4 pseudogene) | -0.425 | -0.621 | -0.15 | inactive |
| MCHR2 (melanin concentrating hormone receptor 2) | -0.967 | -0.614 | -0.559 | inactive |
| ASCC3 (activating signal cointegrator 1 complex subunit 3) | -0.223 | 2.49 | 1.39 | inactive |
| BTBD9 (BTB domain containing 9) | 0.416 | -0.527 | -0.157 | inactive |
| LOC440842 (retired record) | 0.512 | 0.166 | 0.0563 | inactive |
| LYN (LYN proto-oncogene, Src family tyrosine kinase) | -1.03 | -0.304 | -0.732 | inactive |
| LOC440592 (retired record) | -0.381 | -0.0235 | -0.148 | inactive |
| CMTR1 (cap methyltransferase 1) | -1.49 | -0.952 | -0.988 | inactive |
| LOC389602 | 0.248 | 0.484 | 0.538 | inactive |
| TARBP2 (TARBP2 subunit of RISC loading complex) | 1.47 | 1.14 | 1.89 | inactive |
| HRNR (hornerin) | 1.32 | 0.833 | 1.2 | inactive |
| TMEM143 (transmembrane protein 143) | 0.468 | 1.58 | 0.683 | inactive |
| MPP3 (MAGUK p55 scaffold protein 3) | 1.13 | 0.774 | -0.161 | inactive |
| ANAPC1 (anaphase promoting complex subunit 1) | -0.77 | -0.781 | -0.536 | inactive |
| CD3G (CD3 gamma subunit of T-cell receptor complex) | 0.389 | -0.764 | 0.429 | inactive |
| SLC49A3 | -0.283 | -0.0348 | -0.248 | inactive |
| CABP1 (calcium binding protein 1) | 1.68 | 1.72 | 2 | inactive |
| LOC391840 (retired record) | -0.55 | -0.143 | -0.0596 | inactive |
| RAET1E (retinoic acid early transcript 1E) | 1.36 | 0.036 | 1.4 | inactive |
| OR2J2 (olfactory receptor family 2 subfamily J member 2) | 0.686 | 0.0164 | 0.0397 | inactive |
| C12orf75 (chromosome 12 open reading frame 75) | -1.41 | -2.01 | -1.57 | inactive |
| ATOSA (atos homolog A) | -1.41 | -2.09 | -0.416 | inactive |
| MTPAP (mitochondrial poly(A) polymerase) | 0.691 | 0.0947 | 2.08 | inactive |
| PLSCR1 (phospholipid scramblase 1) | -1.05 | -0.00921 | -0.473 | inactive |
| LPGAT1 (lysophosphatidylglycerol acyltransferase 1) | -0.646 | 0.946 | -1.21 | inactive |
| PRCP (prolylcarboxypeptidase) | -0.843 | -0.849 | -0.718 | inactive |
| TBPL1 (TATA-box binding protein like 1) | 1.07 | 2.01 | 1.53 | inactive |
| ACTL7A (actin like 7A) | -0.00778 | -0.403 | -0.407 | inactive |
| LOC400877 (retired record) | -1.07 | -0.926 | -1.08 | inactive |
| RYR2 (ryanodine receptor 2) | -0.425 | -0.823 | -0.704 | inactive |
| RHOXF1 (Rhox homeobox family member 1) | 0.339 | -0.608 | -0.355 | inactive |
| NBPF5P (NBPF member 5, pseudogene) | 0.78 | 0.759 | 1.32 | inactive |
| HOXB13 (homeobox B13) | -0.0915 | -0.287 | -0.395 | inactive |
| ABCC9 (ATP binding cassette subfamily C member 9) | -0.029 | 0.104 | -0.115 | inactive |
| SMC4 (structural maintenance of chromosomes 4) | -2.03 | -1.99 | -1.47 | active |

Records above whose target name starts with S or s:
| Gene | robust z-score, replicate 1 | robust z-score, replicate 2 | robust z-score, replicate 3 | call |
| --- | --- | --- | --- | --- |
| SLC49A3 | -0.283 | -0.0348 | -0.248 | inactive |
| SMC4 (structural maintenance of chromosomes 4) | -2.03 | -1.99 | -1.47 | active |

Continued.
| Gene | robust z-score, replicate 1 | robust z-score, replicate 2 | robust z-score, replicate 3 | call |
| --- | --- | --- | --- | --- |
| LINC02764 (long independently transcribed non-coding RNA 2764) | -0.0599 | 0.499 | 0.534 | inactive |
| EIF4E2 (eukaryotic translation initiation factor 4E family member 2) | -0.45 | -0.888 | -0.223 | inactive |
| APLP2 (amyloid beta precursor like protein 2) | -1.11 | -0.253 | -0.799 | inactive |
| LOC341651 (retired record) | 0.837 | 1.02 | 0.875 | inactive |
| LOC440420 (retired record) | -0.281 | -0.436 | -0.483 | inactive |
| IFITM3 (interferon induced transmembrane protein 3) | -1.55 | 0.188 | 0.252 | inactive |
| DPF3 (double PHD fingers 3) | -0.757 | -0.686 | -0.93 | inactive |
| DMAC1 (distal membrane arm assembly component 1) | -1.16 | -1.05 | -0.637 | inactive |
| THG1L (tRNA-histidine guanylyltransferase 1 like) | 2.91 | 2.01 | 1.14 | active |
| LIPE (lipase E, hormone sensitive type) | -1.7 | -1.56 | -1.51 | inactive |
| UBE3A (ubiquitin protein ligase E3A) | 0.228 | 3.1 | 1.14 | inactive |
| BAZ1B (bromodomain adjacent to zinc finger domain 1B) | 0.866 | 3.04 | 1.69 | inactive |
| ASPHD1 (aspartate beta-hydroxylase domain containing 1) | 0.526 | 0.539 | 0.635 | inactive |
| CUBN (cubilin) | -1.77 | -2.25 | -2.16 | active |
| C9orf57 (chromosome 9 open reading frame 57) | -1.35 | -1.85 | -2.09 | inactive |
| JAG2 (jagged canonical Notch ligand 2) | -1.06 | -1.53 | -1.56 | inactive |
| UTP23 (UTP23 small subunit processome component) | 1.08 | 1.79 | 1.1 | inactive |
| OR4X2 (olfactory receptor family 4 subfamily X member 2) | -0.187 | 0.124 | 0.877 | inactive |
| OR6C3 (olfactory receptor family 6 subfamily C member 3) | -1.11 | -0.761 | -0.842 | inactive |
| LACC1 (laccase domain multifunctional purine nucleosidase 1) | -0.205 | -0.671 | 0.692 | inactive |
| FOXK1 (forkhead box K1) | 0.0174 | -0.608 | -0.42 | inactive |
| SYNC (syncoilin, intermediate filament protein) | -1.04 | -0.328 | -0.98 | inactive |
| USH1G (USH1 protein network component sans) | 0.578 | 0.81 | 1.61 | inactive |
| C1R (complement C1r) | -0.731 | -1.59 | -0.66 | inactive |
| DPPA5 (developmental pluripotency associated 5) | 2.98 | 2.63 | 2.8 | active |
| LOC442374 (retired record) | -0.343 | -0.123 | -0.299 | inactive |
| ZNF121 (zinc finger protein 121) | -0.085 | -0.286 | -0.183 | inactive |
| TENM2 (teneurin transmembrane protein 2) | -0.821 | 0.405 | -0.145 | inactive |
| KCNE3 | -2.16 | -2.28 | -1.83 | active |
| ISG15 (ISG15 ubiquitin like modifier) | -2.73 | -1.83 | -0.306 | active |
| DNAH3 (dynein axonemal heavy chain 3) | -1.31 | -0.978 | -2.12 | inactive |
| NME2 (NME/NM23 nucleoside diphosphate kinase 2) | -0.205 | -0.986 | -0.462 | inactive |
| LINC00525 (long independently transcribed non-coding RNA 525) | -0.344 | -0.424 | -0.633 | inactive |
| AGPAT3 (1-acylglycerol-3-phosphate O-acyltransferase 3) | 0.397 | 1.59 | 2.66 | inactive |
| PAMR1 | -0.102 | -0.285 | -0.494 | inactive |
| HLX (H2.0 like homeobox) | 0.175 | 0.795 | 0.00353 | inactive |
| EFNA5 (ephrin A5) | -0.511 | -0.204 | -0.481 | inactive |
| PEMT (phosphatidylethanolamine N-methyltransferase) | -1.71 | -0.903 | -0.83 | inactive |
| LOC400097 (retired record) | 0.299 | -0.446 | -0.433 | inactive |
| LOC442011 (retired record) | -0.0522 | 0.0451 | 0.294 | inactive |
